Results taken from the supplement of paper PMC5770031.
The list shows a part of the results. This data set is noisy: repeats of one test often differ as much as different tests do.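 Flies heterozygous for the ATM8 allele over a balancer chromosome carrying normal ATM were mated with each other on treated food. Parents laid eggs for 5–6 days and the young then developed for about 12 days, so both parents and larvae ate the compound. The read-out is the share of all emerged adults that carry two ATM8 copies, compared with 2% DMSO control vials. The paper called compounds neutral at 10–20% such offspring, harmful below 10%, and helpful above 20%.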

What follows are compounds tested on Drosophila melanogaster ATM8 (temperature-sensitive ATM allele) (assay: fraction of eclosed F1 progeny that are homozygous ATM8 (rescue of developmental lethality); higher = more rescue of ATM8 developmental lethality; extreme values may be limits of the assay). Settings: compound concentration applied to food 0.2 mM; 21 °C.

| Compound | fraction of eclosed F1 progeny that are homozygous ATM8 |
| --- | --- |
| CCC(=O)O[C@H]1[C@H](O[C@@H]2[C@@H](C)[C@H](O[C@H]3C[C@@](C)(OC)[C@@H](O)[C@H](C)O3)[C@@H](C)C(=O)O[C@H](CC)[C@@](C)(O)[C@H](O)[C@@H](C)C(=O)[C@H](C)C[C@@]2(C)O)O[C@H](C)C[C@@H]1N(C)C | 0.17 |
| CN(C)CCc1c[nH]c2ccc(C[C@H]3COC(=O)N3)cc12 | 0.117 |
| CN(C)CCC=C1c2ccccc2C=Cc2ccccc21 | 0.0495 |
| O=C1CCC[C@@H]2[C@H]3C[C@@H](CN12)[C@@H]1CCCCN1C3.[O-][Cl+3]([O-])([O-])O | 0.114 |
| CC(=O)O[C@H]1CC[C@]2(C)[C@H]3CC=C4[C@@H]5CC(C)(C)CC[C@]5(C)CC[C@@]4(C)[C@]3(C)CC[C@H]2C1(C)C [beta-AMYRIN ACETATE] | 0.0714 |
| COc1cc(/C=C/C(=O)O)ccc1O | 0.191 |
| CNNCc1ccc(C(=O)NC(C)C)cc1 | 0.0263 |
| O=c1[nH]c(=O)n([C@H]2C[C@H](O)[C@@H](CO)O2)cc1F | 0 |
| C[n+]1cccc(C(=O)[O-])c1 | 0.0217 |
| CC(CC(C(N)=O)(c1ccccc1)c1ccccc1)N(C)C (stereo unspecified) | 0 |
| CC1(C)[C@@H](O[C@H]2O[C@H](C(=O)O)[C@@H](O)[C@H](O)[C@H]2O[C@@H]2O[C@H](C(=O)O)[C@@H](O)[C@H](O)[C@H]2O)CC[C@]2(C)[C@H]3C(=O)C=C4[C@@H]5C[C@@](C)(C(=O)O)CC[C@]5(C)CC[C@@]4(C)[C@]3(C)CC[C@@H]12 | 0.279 |
| C[C@]12C=CC(=O)C=C1CC[C@@H]1[C@@H]2C(=O)C[C@@]2(C)[C@H]1CC[C@]2(O)C(=O)CO | 0.0217 |
| CCOC(=O)CCC(=O)O[C@H]1[C@H](O[C@@H]2[C@@H](C)[C@H](O[C@H]3C[C@@](C)(OC)[C@@H](O)[C@H](C)O3)[C@@H](C)C(=O)O[C@H](CC)[C@@](C)(O)[C@H](O)[C@@H](C)C(=O)[C@H](C)C[C@@]2(C)O)O[C@H](C)C[C@@H]1N(C)C | 0.0294 |
| CCn1cc(C(=O)O)c(=O)c2cc(F)c(N3CCNC(C)C3)c(F)c21 (stereo unspecified) | 0.0303 |
| CNC(=C[N+](=O)[O-])NCCSCc1csc(CN(C)C)n1 | 0.265 |
| OCc1ccccc1 | 0.027 |
| COC(=O)/C(C)=C\C[C@@]12OC(C)(C)[C@@H]3C[C@@H](C=C4C(=O)c5c(O)c6c(c(CC=C(C)C)c5O[C@]431)O[C@](C)(CCC=C(C)C)C=C6)C2=O | 0 |
| CCn1cc(C(=O)O)c(=O)c2cc(F)c(N3CCN(C)CC3)cc21 | 0.235 |
| COc1cc2c(cc1-c1cc3cc4ccoc4cc3oc1=O)OCO2 | 0.0449 |
| Cc1ccc(S(=O)(=O)NCl)cc1 | 0.1 |
| C[C@@H]1O[C@@H]1P(=O)(O)O | 0.0909 |
| C[C@@H]1CN(c2c(F)c(N)c3c(=O)c(C(=O)O)cn(C4CC4)c3c2F)C[C@H](C)N1 | 0 |
| O=C(N/N=C/c1ccc([N+](=O)[O-])o1)c1ccc(O)cc1 | 0.229 |
| CC(C)C[C@H](CN)CC(=O)O | 0.0789 |
| NC(=O)c1ncn([C@@H]2O[C@H](CO)[C@@H](O)[C@H]2O)c1O | 0.0678 |
| CN(C)C(=S)SSC(=S)N(C)C | 0.0159 |

| Compound | fraction of eclosed F1 progeny that are homozygous ATM8 |
| --- | --- |
| OCC(Br)(Br)Br | 0.143 |
| CC(=O)Nc1c(I)c(NC(C)=O)c(I)c(C(=O)O)c1I | 0.0143 |
| CCc1cc(C(N)=S)ccn1 | 0.176 |
| Cc1ccc(C(=O)Nc2ccc(S(=O)(=O)O)c3cc(S(=O)(=O)O)cc(S(=O)(=O)O)c23)cc1NC(=O)c1cccc(NC(=O)Nc2cccc(C(=O)Nc3cc(C(=O)Nc4ccc(S(=O)(=O)O)c5cc(S(=O)(=O)O)cc(S(=O)(=O)O)c45)ccc3C)c2)c1 | 0.125 |
| CC(=O)Nc1ccc(S(=O)(=O)Nc2ccc([N+](=O)[O-])cc2)cc1 | 0.0978 |
| O=C1NC(=O)C(=O)C(=O)N1 | 0.136 |
| C[C@H]1[C@H](NC(=O)/C(=N\OC(C)(C)C(=O)O)c2csc(N)n2)C(=O)N1S(=O)(=O)O | 0.178 |
| CC(C)(C)NCC(O)c1ccccc1Cl (stereo unspecified) | 0.345 |
| CNCCC=C1c2ccccc2CCc2ccccc21 | 0.129 |
| OC[C@H]1O[C@@H](OCCc2ccc(O)cc2)[C@H](O)[C@@H](O)[C@@H]1O | 0.213 |
| Cc1ccc2c(c1)CC[C@H]1CC(=O)CC[C@]21C | 0.0303 |
| CCc1c2c(nc3ccc(OC(=O)N4CCC(N5CCCCC5)CC4)cc13)-c1cc3c(c(=O)n1C2)COC(=O)[C@]3(O)CC | 0.0395 |
| CC(C)(O/N=C(\C(=O)N[C@@H]1C(=O)N2C(C(=O)[O-])=C(C[n+]3ccccc3)CS[C@H]12)c1csc(N)n1)C(=O)O | 0.0909 |
| C[C@@H](O)[C@H](N)C(=O)O | 0 |
| CCC(C)(C)O | 0.254 |
| Cc1ccc(/C(=C\CN2CCCC2)c2ccccn2)cc1 | 0.171 |
| Oc1nc2cc(Cl)c(Cl)cc2nc1O | 0 |
| C=CC[C@@H]1/C=C(\C)C[C@H](C)C[C@H](OC)[C@H]2O[C@@](O)(C(=O)C(=O)N3CCCC[C@H]3C(=O)O[C@H](/C(C)=C/[C@@H]3CC[C@@H](O)[C@H](OC)C3)[C@H](C)[C@@H](O)CC1=O)[C@H](C)C[C@@H]2OC | 0 |
| CC(=O)OC1CCC23CC1(C)CCC2C(C)(C)CC3OC(C)=O (stereo unspecified) | 0.0952 |
| O=C([O-])c1ccccc1O.[Na+] | 0.178 |
| COc1ccc2[nH]cc(CCNC(C)=O)c2c1 | 0.1 |
| NC[C@H]1O[C@H](O[C@H]2[C@H](O[C@@H]3O[C@H](CO)[C@@H](O)[C@H]3O)[C@@H](O)[C@H](N)C[C@@H]2N)[C@H](N)[C@@H](O)[C@@H]1O | 0.0976 |
| CC(=O)O[C@H]1C[C@H](O[C@H]2[C@@H](O)C[C@H](O[C@H]3[C@@H](O)C[C@H](O[C@H]4CC[C@@]5(C)[C@H](CC[C@@H]6[C@@H]5C[C@@H](O)[C@]5(C)[C@@H](C7=CC(=O)OC7)CC[C@]65O)C4)O[C@@H]3C)O[C@@H]2C)O[C@H](C)[C@H]1O[C@@H]1O[C@H](CO)[C@@H](O)[C@H](O)[C@H]1O | 0.163 |
| CC(C)N1CCN(c2ccc(OCC3COC(Cn4cncn4)(c4ccc(Cl)cc4Cl)O3)cc2)CC1 (stereo unspecified) | 0.106 |
| COc1ccc(CCN2CCC(Nc3nc4ccccc4n3Cc3ccc(F)cc3)CC2)cc1 | 0.25 |

Already shown: entries from further up.

| Compound | fraction of eclosed F1 progeny that are homozygous ATM8 |
| --- | --- |
| C[C@@H](O)[C@H](N)C(=O)O | 0 |
| CCC(C)(C)O | 0.254 |
